Experimental findings from PubChem BioAssay AID1347426 (Functional Genomics Laboratory (NCATS/FGL), 2020) are described below.

Screen size: about 31,000 sequences; about 1,400 (4.5%) were called active.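 How the source made its calls: active means median seed-adjusted z-score above 1 or below -1; inactive means the rest.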 This is one part of the list.

The nature of this experiment: Novel Modifiers of Survival Motor Neuron (SMN) Protein: Gene Identification via Genome-wide siRNA Screen.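 Further: luminescence tracks full-length SMN protein made from the SMN2 reporter.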 The conditions noted are these: HEK293T SMN2-luciferase reporter, siRNA knockdown, 72 h; actives lie on both sides. Put shortly: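 Steps: spot 1 pmol siRNA, add Lipofectamine RNAiMax in serum-free DMEM, seed HEK293T SMN2–luciferase reporter cells; incubate 72 h at 37 °C; add ONE-Glo; normalize luminescence to control siRNA, log10, MAD. Candidates: |MAD| > 1.0.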
Take GGCAAUGUAUCCACACAUATT against APOBEC3F: the median seed-adjusted z-score was inactive: -0.315.
Take ACUCAGACCUUUAUCCUGATT against CA12: the median seed-adjusted z-score is inactive: -0.0119.
Turning to CAUACGGACUGUACCUUUATT against PSMC5, the median seed-adjusted z-score was active: -1.06.
GCAUCCAAAUGCUGAUGGGTT against CSHL1: the median seed-adjusted z-score was inactive: -0.54.
The figure for GAUGAUGGAUUUAACUAUATT against CALU is inactive: 0.123.
With GGAAGGACUGCGAACCUUATT against POLM the figure was active: -1.55.
The figure for CCAUGGAGAUCGUAGUGGATT against CLCN5 is inactive: 0.856.
In the case of CCAUGACACGGUCCUCCAATT against ICAM2, the median seed-adjusted z-score was inactive: 0.269.
The figure for GGAAUAUCCUUCCACUUCATT against ADPGK is inactive: 0.373; for GGCGUAACUUCAGUAAACATT against PBX3 it is inactive: 0.847.
The figure for GGAAGAAGUUGUCCGAUGATT against CYP4F3 is inactive: -0.336; for UGGACACCGUCACCAUGAATT against GPR78 it is inactive: 0.607.
The figure for GACGGAGAGGAAUAAUUGATT against HEY1 is inactive: -0.023.
As for CUAUGUUCAUGGUGGAGUATT against G3BP2, the median seed-adjusted z-score was inactive: -0.336.
GAGCAGGACGAGUACGACATT against BCAR1: the median seed-adjusted z-score is inactive: -0.469.
With GUUCGUGAAUGGAAUAAUATT against TTLL5 the figure was inactive: 0; with GUGUCAAAGUUUUUCAUAATT against ZNF718, inactive: 0.0564; with GAUACGUCCUUUUGCGGUATT against FARSB, inactive: 0.317.
With GCAUGCUCUUUGUUAGGAATT against DARS2, the median seed-adjusted z-score is inactive: 0.0673.
The figure for CCAUAUUGUGGAUGGAUAATT against SEMA6A is inactive: -0.192.
The figure for GGUCUAAUCAUGCCGCAGATT against HUWE1 is inactive: 0.734.
On to AGACAUACUCCAAACCUUUTT against IL8, for which the median seed-adjusted z-score was inactive: 0.0521.
The figure for AGUUCAUCGAUGACAUGGATT against COL6A2 is inactive: 0.0119; for GCAAUGACCGUACAUCCAATT against ZNF654 it is inactive: 0.199.
As for GGUUAUACACUUUCGGAUATT against MAP3K15, the median seed-adjusted z-score is inactive: -0.315.
The figure for GUUCAGGUUUGGUUCAAGATT against CRX is inactive: -0.156; for GGGACAAAGUGGGCGAACATT against SDR9C7 it is inactive: 0.
The figure for GGAUGUUCGUGAUGCUGAATT against FUSIP1 is inactive: 0.865; for GCGAGUUUGUUGUGACAUUTT against JARID1A it is inactive: 0.189; for GAAUGGAAAGUGCAACUUATT against ZNF266 it is inactive: 0.426.
As for GCACUAUCCAGUUUGUGGATT against TUBA3E, the median seed-adjusted z-score was inactive: -0.35.
As to GAAUGACGAUGACUUUACATT against SRBD1, the median seed-adjusted z-score was inactive: 0.169.
The figure for GGCCUUUCGCUGUAUCAAATT against YY1AP1 is inactive: 0.0453; for CCUCAGCAGUGGUACCUGUTT against FURIN it is inactive: 0.0975; for GCCUAUCACAUUACAGAUATT against ARL9 it is inactive: 0.98.
The figure for GCAAGAUGAUUUUAUCUCUTT against CDA is inactive: 0.471; for GUCUGUCACCGUAUCGUCATT against FGD6 it is inactive: 0.536; for CAGUUAAGACUGUAGAGAATT against SQRDL it is inactive: 0.455.
On to CAUAGAAACUGAUGCAGAATT against ENOSF1, for which the median seed-adjusted z-score is inactive: 0.496.
Regarding CUAUGGAAGAUACUAUAUUTT against GGH, the median seed-adjusted z-score was inactive: -0.105.
Consider GGGACUCAAUUGACGAAAATT against DNAJC16, for which the median seed-adjusted z-score was inactive: 0.
With GCAUCAUCUAGAGCGGAUATT against LRRC4C the figure was inactive: -0.122; with CCACAGGAGAAGAUUGUCATT against CYP1A2, inactive: 0.
The figure for GGCAUUAUCUGGAUCACUUTT against PATE1 is active: 1.21; for GCAACGCAGUGAGGAGUAUTT against NIN it is inactive: 0.646.
With CAUCCAUCAAGAGACCAAATT against HTR3D the figure was inactive: 0.776; with CGAUGAGCCUGCUAUACAATT against ID2, inactive: 0.783.
For the sequence GCAGCAAGCCGACAUCAUATT against RTEL1, the median seed-adjusted z-score is inactive: 0.458.
The figure for GAAGGAAGAUGGUAAGGGATT against IL6ST is inactive: -0.518; for CAAGAACGUGCACAUUUUUTT against SLC25A4 it is inactive: -0.379; for GCUUCUACCUUUACACGGATT against PDE1A it is inactive: 0.
For the sequence GCAAGGCGGCUCUAGCUAATT against PDLIM1, the median seed-adjusted z-score is inactive: -0.189.
Take GUGGAUCUGUGGAACAUGATT against RCL1: the median seed-adjusted z-score was inactive: 0.0807.
With GGCAUGUCCUCACCCAAUATT against ESPN, the median seed-adjusted z-score is inactive: 0.
For CUUCUUCAUCGUUAACAUUTT against ADRB2, the median seed-adjusted z-score is inactive: 0.0987.
CAGCAAAUUCCAUCGUGUATT against PPIB: the median seed-adjusted z-score is inactive: 0.038.
Consider GAUUAUUCCGAGUACUUGATT against YY2, for which the median seed-adjusted z-score is inactive: 0.363.
On to CCCUGGUGUUUAUCAAGUATT against PSEN1, for which the median seed-adjusted z-score was inactive: -0.679.
The figure for GCUAUAGACUUGCAAGAUATT against KCNT2 is inactive: 0.449; for AUCCUUCCCUGAAUCAUCATT against KLRC2 it is inactive: -0.472.
As to CCAACUCCUUGAUUAAAGATT against PARK2, the median seed-adjusted z-score is inactive: 0.146.
For the sequence CCAACACCUGUACCCAAUATT against SMARCC1, the median seed-adjusted z-score is inactive: -0.0304.
Take CAAUUGACCUUACGCAGAATT against TLL1: the median seed-adjusted z-score was inactive: 0.396.
With GGUGGUAUCUGUUUCCGUATT against PCAF the figure was inactive: -0.00665; with GCCUGUUGCCUGAGAGACATT against PROP1, inactive: 0.303.
Regarding CACAAGUUAUUGUUCCAGATT against GTF2A1, the median seed-adjusted z-score is inactive: -0.0209.
The figure for CCAUAUAAGGGAGAAGAUATT against ZNF200 is inactive: 0.498.
With CGCAGACACUGUCAAAGAATT against HS3ST4, the median seed-adjusted z-score was inactive: 0.284.
For the sequence GAUUCUCAUUCGUUGACCATT against FGA, the median seed-adjusted z-score is inactive: 0.267.
Turning to GAUUCGCAUCUUCAAAAUATT against RAB33A, the median seed-adjusted z-score was inactive: 0.307.
For CAAUCAAAGGGAAACUUGATT against TPT1, the median seed-adjusted z-score is inactive: 0.236.
In the case of CGGAGUUUGUUGAUAUCGATT against LGI2, the median seed-adjusted z-score is inactive: 0.
For the sequence CGAAAAUCUCUCUACCGAUTT against NUP153, the median seed-adjusted z-score was inactive: -0.847.
With GUAUAUCAGUUCCAGUUUATT against RANBP3 the figure was inactive: -0.211.
With CUGCGGAUGUUUAACAGGATT against ENTPD6 the figure was inactive: 0.438; with GCACUAUCCUGACCUUCCUTT against KCNG1, inactive: -0.00995.
With CGGUGUACCUUCUCACUUUTT against GPR42 the figure was inactive: -0.0972.
In the case of CAAGAUUUCUUAGGGCGAATT against STYK1, the median seed-adjusted z-score was inactive: 0.106.
With GAGUACCUCUGGGACGACATT against GBGT1 the figure was inactive: 0.48.
The figure for GGAAACUCUGUUUACGUUATT against BTAF1 is active: -1.19; for GGAGGGAUAUGUUCCACGUTT against TP53BP2 it is inactive: 0.157.
For GAGCUUCGAUGUAAAGGGATT against PDGFRL, the median seed-adjusted z-score is inactive: 0.0203.
The figure for GGGACGACUGCAUCAAGUATT against SLC27A1 is inactive: 0.253.
With CACUGGUAUUUAUAUUUCATT against SNAI1 the figure was inactive: 0.0196; with GGCUCAAUGUAUAGGAUCATT against PHF16, inactive: 0.
As for CGGGACAGAUUUACACGUATT against DPF1, the median seed-adjusted z-score is inactive: 0.144.
For CGAUUUAUCCGAUGCCCUUTT against CD99, the median seed-adjusted z-score is inactive: 0.
Regarding GCAUAGCUGGUAUAGACCATT against XPC, the median seed-adjusted z-score is inactive: -0.564.
The figure for GAGCGAGAGUUUUUCUUCATT against HOXC11 is inactive: -0.188; for UGACAAGGAUUAUUUCCUATT against HSPE1 it is inactive: 0.0101.
Turning to GGAACUGUAUAGGUCAAAATT against CYP4V2, the median seed-adjusted z-score was inactive: 0.
The figure for CAGGAGAAGUUAAUCCAGUTT against AKR1B1 is inactive: 0.0107; for ACAUAGGACAGGAUAUUUATT against ZNF697 it is inactive: 0.0503.
Turning to GCAGAUUUCAGAAUCUAUATT against IL4R, the median seed-adjusted z-score was inactive: 0.
With GGUGCAAUCAGAUAACAUATT against PPAPDC1A the figure was inactive: 0.634; with CAUCGGCUAUGACAACAUUTT against PSTPIP2, inactive: 0.0136; with CCUCAGAAGCUAUCCCUAATT against ITGA2B, inactive: 0.172.
As to GCAGCUCAACGGCAAAGAATT against RBM14, the median seed-adjusted z-score is inactive: -0.0317.
With CCGUGUCCAGGAACCUAUATT against LPHN3 the figure was inactive: -0.0576; with CCCUAGUGGUGACCGUUAATT against PCDHA3, inactive: 0.311; with CUAGUAACAUAUGAUCUAATT against UCP1, inactive: -0.0744.
On to CUCUUGAUAGUUACCGGAATT against TTK, for which the median seed-adjusted z-score was inactive: -0.658.
Take GCAGCAGAAUAGUGUGGUATT against TRIM56: the median seed-adjusted z-score was inactive: -0.452.
With CAGGCAUCAUAUUUUGAAATT against NUDT3 the figure was inactive: 0.674.
With CAGUUGACCUGGGACCUUATT against IL3RA the figure was inactive: -0.951; with CUCAUACUCUGAAUCUUGATT against ADH6, inactive: -0.132.
Regarding GCUCCGAAGUUCAACCAUUTT against HTR2B, the median seed-adjusted z-score is inactive: -0.325.
As for AGGAGACUCUUUGCUACAATT against MRGPRX1, the median seed-adjusted z-score was inactive: -0.188.
